Measured values reported in PubChem BioAssay AID206 (DTP/NCI, 2004).
The list shows only some results of the screen, not a fair sample: it is rich in T/C values a quarter to a half above the control, in often repeated tests (any T/C) and in doses without a T/C. Further doses and runs are listed elsewhere. T/C is the treated group as % of the vehicle group. Schedule codes are those of the source, read here as Q, the interval in days (D) or hours (H), X, the number of doses. Some T/C values are followed by the survivors on the day toxicity was checked, most often the fifth; without a count, all were alive then. Some T/C values are negative: the treated tumours shrank. Some entries were tested several times; the results are listed from low to high. Some doses have a count of surviving animals in place of a T/C: the source holds a T/C of zero for them, seemingly a mark for toxic or unscored doses. Survivors were counted at the toxicity check, usually on the fifth day, unless a day is given; later deaths do not show.

Tested on: nude mice, HT29 intrarenal xenograft, tumor weight T/C
Assay: NCI In Vivo Anticancer Drug Screen. Data for tumor model HT29;CX-1 Human Adenocarcinoma (MER+) (intrarenal inoculation) in NU/NU Swiss (nude) mice
Settings: T/C endpoint: mean tumor weight change, higher T/C = larger tumour
How it was run: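 Endpoint measured as tumor size or survival; ratio reported is treated group over vehicle controls.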

[1] = dose: 2400.0 mg/kg/injection, schedule: Q04DX004 (sc), vehicle: Klucel (hydroxypropylcellulose) (HPC)
[2] = dose: 200.0 mg/kg/injection, schedule: Q01DX010 (sc), vehicle: saline
[3] = dose: 50.0 mg/kg/injection, schedule: Q01DX010 (sc), vehicle: saline

With `CCC1OCC(C(Cl)CCl)O1` (stereo not given) as the molecule, how does the T/C (dose: 300.0 mg/kg/injection, schedule: Q04DX004 (sc), vehicle: Klucel (hydroxypropylcellulose) (HPC), evaluated on day 15) read?
Its T/C is 47, 64, 83, 113, 114, 210 % of control.

What about the T/C (dose: 600.0 mg/kg/injection, schedule: Q04DX004 (sc), vehicle: Klucel (hydroxypropylcellulose) (HPC), evaluated on day 15) of the same molecule?
The T/C was 7, 18, 26, 27, 42 [5 of 6 alive on day 15], 61, 135 % of control.

What about the T/C (dose: 1200.0 mg/kg/injection, schedule: Q04DX004 (sc), vehicle: Klucel (hydroxypropylcellulose) (HPC), evaluated on day 15) of the same molecule?
Its T/C is -71 [5 of 6 alive on day 15], -68, 28 [5 of 6 alive on day 15], 32 [5 of 6 alive on day 15], 80 % of control.

What about the survivor count (dose: 1200.0 mg/kg/injection, schedule: Q04DX004 (sc), vehicle: Klucel (hydroxypropylcellulose) (HPC)) of the same molecule?
The survivor count was 0 of 6 on day 15 and 3 of 6 on day 15.

And the survivor count (dose: 1200.0 mg/kg/injection, schedule: Q04DX004 (sc), vehicle: other)?
Its survivor count is 0 of 6 on day 15.

What about the T/C (dose: 2400.0 mg/kg/injection, schedule: Q04DX004 (sc), vehicle: Klucel (hydroxypropylcellulose) (HPC), evaluated on day 15) of the same molecule?
The T/C was -94 [4 of 6 alive on day 15], 10, 21 % of control [4 of 6 alive on day 15].

What about the survivor count [1] of the same molecule?
The survivor count was 0 of 6 on day 15, 2 of 6 on day 15, 3 of 6 on day 15.

And the survivor count (dose: 2400.0 mg/kg/injection, schedule: Q04DX004 (sc), vehicle: other)?
Its survivor count is 0 of 6 on day 15.

And the survivor count (dose: 4800.0 mg/kg/injection, schedule: Q04DX004 (sc), vehicle: Klucel (hydroxypropylcellulose) (HPC))?
Its survivor count is 0 of 6 on day 15.

`CSC1SCC2C(=O)N(C)C(C(C)C)C(=O)OCC(NC(=O)c3cnc4ccccc4n3)C(=O)NC(C)C(=O)N(C)C1C(=O)N(C)C(C(C)C)C(=O)OCC(NC(=O)c1cnc3ccccc3n1)C(=O)NC(C)C(=O)N2C` (stereo not given) was tested. Which survivor count (dose: 480.0 micrograms/kg/injection, schedule: Q01DX010 (sc), vehicle: saline) did it give?
Its survivor count is 0 of 3 on day 11.

What about the survivor count (dose: 480.0 micrograms/kg/injection, schedule: Q01DX010 (sc), vehicle: suspension in saline) of the same molecule?
The survivor count was 0 of 6 on day 11.

For `C=C(C)[C@H]1Cc2c(ccc3c2O[C@@H]2COc4cc(OC)c(OC)cc4[C@@H]2C3=O)O1`, which survivor count (dose: 16.0 mg/kg/injection, schedule: Q01DX010 (sc), vehicle: saline with Tween-80) is on record?
Its survivor count is 0 of 3 on day 11.

Which T/C (dose: 1.5 mg/kg/injection, schedule: Q01DX010 (sc), vehicle: saline with Tween-80, evaluated on day 11) does the source give for `CC[N+](CC)(CC)CC` here?
The T/C was 127 % of control.

What about the survivor count (dose: 12.0 mg/kg/injection, schedule: Q01DX010 (sc), vehicle: saline with Tween-80) of the same molecule?
Its survivor count is 0 of 3 on day 11.

Which survivor count [2] does the source give for `OCC1OC(n2cnc3c(=S)nc[nH]c32)C(O)C1O` (stereo not given) here?
Its survivor count is 0 of 3 on day 20.

Which T/C (dose: 100.0 mg/kg/injection, schedule: Q01DX010 (sc), vehicle: saline, evaluated on day 11) does the source give for `C=CC(=O)NCNC(=O)C=C` here?
Its T/C is 126 and 147 % of control [2 of 2 alive on day 11].

And the survivor count [2]?
Its survivor count is 0 of 3 on day 11 and 1 of 3 on day 11.

Which survivor count (dose: 8.0 mg/kg/injection, schedule: Q01DX010 (sc), vehicle: distilled water + Tween-80) does the source give for `CC(C)CCCCCCCCCCCCC(=O)NCC(=O)NC1C(C)OC(Nc2ncnc3nc[nH]c23)C(O)C1O` (stereo not given) here?
The survivor count was 1 of 3 on day 11.

What about the survivor count (dose: 16.0 mg/kg/injection, schedule: Q01DX010 (sc), vehicle: distilled water + Tween-80) of the same molecule?
Its survivor count is 0 of 3 on day 11 and 1 of 3 on day 11.

What about the survivor count (dose: 16.0 mg/kg/injection, schedule: Q04DX004 (sc), vehicle: distilled water + Tween-80) of the same molecule?
Its survivor count is 1 of 3 on day 15.

And the survivor count (dose: 32.0 mg/kg/injection, schedule: Q01DX010 (sc), vehicle: distilled water + Tween-80)?
The survivor count was 0 of 3 on day 11.

What about the survivor count (dose: 32.0 mg/kg/injection, schedule: Q04DX004 (sc), vehicle: distilled water + Tween-80) of the same molecule?
Its survivor count is 0 of 3 on day 15.

For `CCCCCCCCNc1cc2c3c(c1)CCCN3CCC2`, which survivor count (dose: 24.0 mg/kg/injection, schedule: Q04DX004 (sc), vehicle: Klucel (hydroxypropylcellulose) (HPC)) is on record?
The survivor count was 0 of 6 on day 15.

Which results are given for `COc1cc2c(c(OC)c1OC)-c1ccc(OC)c(=O)cc1[C@@H](NC(C)=O)CC2`?
T/C (dose: 0.25 mg/kg/injection, schedule: Q01DX010 (sc), vehicle: saline, evaluated on day 20): 133 % of control; survivor count (dose: 1.0 mg/kg/injection, schedule: Q01DX010 (sc), vehicle: saline): 1 of 3 on day 20; survivor count (dose: 2.0 mg/kg/injection, schedule: Q01DX010 (sc), vehicle: saline): 0 of 3 on day 20

Which survivor count (dose: 400.0 mg/kg/injection, schedule: Q04DX004 (sc), vehicle: saline) does the source give for `O=C(/C=C(\Cl)C(=O)NO)NO` here?
The survivor count was 0 of 6 on day 15.

With `O=C1NC(=O)NC(C(=O)O)N1` as the molecule, how does the survivor count [1] read?
Its survivor count is 3 of 6 on day 15.

How did the survivor count (dose: 400.0 mg/kg/injection, schedule: Q04DX004 (sc), vehicle: suspension in saline) turn out when `Cn1cnc([N+](=O)[O-])c1Sc1ncn[nH]1` was run?
Its survivor count is 3 of 6 on day 15.

What about the survivor count (dose: 800.0 mg/kg/injection, schedule: Q04DX004 (sc), vehicle: suspension in saline) of the same molecule?
The survivor count was 2 of 6 on day 15.

What about the survivor count (dose: 1600.0 mg/kg/injection, schedule: Q04DX004 (sc), vehicle: suspension in saline) of the same molecule?
The survivor count was 0 of 5 on day 15.

How did the survivor count (dose: 6.0 mg/kg/injection, schedule: Q04DX004 (sc), vehicle: Klucel (hydroxypropylcellulose) (HPC)) turn out when `C[n+]1c(/C=C\C=C\N2CCCCC2)sc2ccccc21` was run?
Its survivor count is 0 of 6 on day 15.

What about the survivor count (dose: 12.0 mg/kg/injection, schedule: Q04DX004 (sc), vehicle: Klucel (hydroxypropylcellulose) (HPC)) of the same molecule?
The survivor count was 0 of 6 on day 15.

For `O=P1(N(CCCl)CCCl)NCCCO1` (stereo not given), which survivor count [3] is on record?
The survivor count was 0 of 3 on day 11.

What about the survivor count (dose: 100.0 mg/kg/injection, schedule: Q01DX010 (sc), vehicle: saline) of the same molecule?
The survivor count was 0 of 3 on day 11.

And the survivor count [2]?
The survivor count was 0 of 3 on day 11.

With `CC(=O)Nc1ccc(S(=O)(=O)CO)cc1` as the molecule, how does the survivor count (dose: 900.0 mg/kg/injection, schedule: Q04DX004 (sc), vehicle: saline with Tween-80) read?
Its survivor count is 0 of 6 on day 15.

What about the survivor count (dose: 1800.0 mg/kg/injection, schedule: Q04DX004 (sc), vehicle: saline with Tween-80) of the same molecule?
Its survivor count is 0 of 6 on day 15.

`Cc1c2c(ccc3ccccc32)c[n+]2ccccc12` was tested. Which survivor count (dose: 25.0 mg/kg/injection, schedule: Q01DX010 (sc), vehicle: saline) did it give?
Its survivor count is 0 of 3 on day 11.

What about the survivor count [3] of the same molecule?
Its survivor count is 0 of 3 on day 11.

For `COCC1OC2OC3C(COC)OC(OC4C(COC)OC(OC5C(COC)OC(OC6C(COC)OC(OC7C(COC)OC(OC8C(COC)OC(OC1C(O)C2O)C(O)C8O)C(O)C7O)C(O)C6O)C(O)C5O)C(O)C4O)C(O)C3O` (stereo not given) (tested in a mixture with another compound), which T/C (dose: 400.0 mg/kg/injection, schedule: Q04DX004 (sc), vehicle: Klucel (hydroxypropylcellulose) (HPC), evaluated on day 15) is on record?
The T/C was 137 % of control.

And the T/C (dose: 800.0 mg/kg/injection, schedule: Q04DX004 (sc), vehicle: Klucel (hydroxypropylcellulose) (HPC), evaluated on day 15)?
Its T/C is 140 % of control [5 of 6 alive on day 15].

How did the survivor count (dose: 1800.0 mg/kg/injection, schedule: Q04DX004 (sc), vehicle: saline) turn out when `O=C[C@@H](CO)O[C@H](C=O)n1cnc2c(=O)[nH]cnc21` was run?
Its survivor count is 0 of 6 on day 15.

Which results are given for `N=c1nc2n(cc1F)[C@@H]1O[C@H](CO)[C@@H](O)[C@@H]1O2`?
survivor count (dose: 600.0 mg/kg/injection, schedule: Q04DX004 (sc), vehicle: suspension in saline): 3 of 6 on day 15; survivor count (dose: 2400.0 mg/kg/injection, schedule: Q04DX004 (sc), vehicle: suspension in saline): 3 of 6 on day 15
